In publication PMC11384114:
The exact form of at least one protein or probe is not confirmed. No signal at the amounts used counts as a negative.

The sequences below were run on MBP-SlPIF4 (Solanum lycopersicum (tomato)) (assay: EMSA). Details: LightShift Chemiluminescent EMSA kit (Thermo 20148); unlabeled competitor 100x, 300x, 500x; pH and temperature not stated; recombinant protein; protein details: MBP; label: biotin 3' end.

Binding result, no binding:
AACTTTAATTTATGACCGACAAAAACTCTTT (double strand) [SlCCD7-mut]
AGTTTTCGAATGTATCCCATGTTA (double strand) [SlMAX1-mut]
TTTAACGTTAATTTTTTTTTTTACATACTTAAAATCAC (double strand) [SlCCD8-mut]
